Measurements reported in PubChem BioAssay AID1259424 (University of Nebraska Medical Center, 2018)
Screen: 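Seek colon cancer survival genes behaving like KSR1, using a six-gene signature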 (primary screen). System: human HCT116 colon cancer cells. Reagent: siRNA pool against human genes, 50 nM. Read-out: 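Six signature mRNAs by branched-DNA multiplex assay, scaled to two housekeeping genes and non-targeting median, log2; matched to mean KSR1 knockdown profile by Pearson correlation and euclidean distance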. Direction: mean correlation with KSR1 profile and KSR1 correlation: higher = expression change more like KSR1 knockdown; mean distance from KSR1 profile: higher = expression change less like KSR1 knockdown.
In all, the deposit lists about 14,000 reagents; this is an unselected part. 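Higher correlation or smaller distance means closer resemblance to KSR1 loss; control wells, including KSR1 knockdowns, recur on many plates.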 Reagent sequences are not shown. The record does not give: the time to read-out.

| gene knocked down | mean correlation with KSR1 profile | mean distance from KSR1 profile | KSR1 correlation, replicate 1 | KSR1 correlation, replicate 2 | KSR1 correlation, replicate 3 |
| --- | --- | --- | --- | --- | --- |
| LARGE1 (LARGE xylosyl- and glucuronyltransferase 1) | 0.365 | 1.69 | 0.254 | 0.437 | 0.354 |
| KLHL36 (kelch like family member 36) | 0.205 | 2.19 | 0.28 | 0.166 | 0.19 |
| INAVA (innate immunity activator) | -0.85 | 3.65 | -0.903 | -0.899 | -0.934 |
| IFI44L (interferon induced protein 44 like) | -0.481 | 2.82 | -0.619 | -0.447 | -0.285 |
| SNRPD2 (small nuclear ribonucleoprotein D2 polypeptide) | -0.367 | 2.61 | -0.324 | -0.375 | -0.293 |
| GET1 (guided entry of tail-anchored proteins factor 1) | -0.0648 | 2.63 | -0.147 | 0.137 | 0.133 |
| PLEKHF2 (pleckstrin homology and FYVE domain containing 2) | 0.19 | 1.54 | 0.242 | 0.734 | -0.183 |
| KIF18A (kinesin family member 18A) | -0.207 | 1.47 | -0.331 | -0.292 | 0.0452 |
| CTCF (CCCTC-binding factor) | 0.3 | 2.43 | 0.514 | 0.455 | -0.0953 |
| SIGIRR (single Ig and TIR domain containing) | -0.225 | 2.1 | -0.439 | -0.124 | -0.0933 |
| PEX6 (peroxisomal biogenesis factor 6) | 0.554 | 1.2 | 0.231 | 0.457 | 0.743 |
| ATP6V1D (ATPase H+ transporting V1 subunit D) | -0.311 | 4.57 | -0.384 | -0.0809 | -0.409 |
| UCP1 (uncoupling protein 1) | 0.0864 | 1.45 | 0.0933 | -0.162 | 0.307 |
| ARPC5L (actin related protein 2/3 complex subunit 5 like) | 0.729 | 1.02 | 0.455 | 0.736 | 0.686 |
| ABHD2 (abhydrolase domain containing 2, acylglycerol lipase) | 0.449 | 1.78 | 0.548 | 0.482 | 0.321 |
| PKNOX1 (PBX/knotted 1 homeobox 1) | 0.274 | 2.07 | 0.48 | 0.512 | 0.181 |
| RTF1 (RTF1 homolog, Paf1/RNA polymerase II complex component) | -0.646 | 2.77 | -0.464 | -0.648 | -0.713 |
| UGT1A9 (UDP glucuronosyltransferase family 1 member A9) | -0.0692 | 2.83 | -0.0157 | -0.125 | -0.19 |
| MKS1 (MKS transition zone complex subunit 1) | -0.713 | 2.5 | -0.325 | -0.704 | -0.795 |
| KRT9 (keratin 9) | 0.576 | 3.28 | 0.529 | 0.49 | 0.621 |
| CRYBG2 (crystallin beta-gamma domain containing 2) | 0.301 | 1.8 | 0.476 | 0.417 | 0.264 |
| ZNF273 (zinc finger protein 273) | 0.107 | 1.19 | 0.304 | -0.144 | 0.264 |
| MX2 (MX dynamin like GTPase 2) | 0.283 | 1.71 | 0.187 | 0.314 | 0.19 |
| USP33 (ubiquitin specific peptidase 33) | -0.0796 | 1.35 | -0.0567 | -0.12 | -0.169 |
| ANPEP (alanyl aminopeptidase, membrane) | -0.376 | 2.4 | -0.471 | -0.465 | -0.417 |
| PHF24 (PHD finger protein 24) | 0.343 | 1.75 | 0.308 | 0.417 | 0.27 |
| DTWD1 (DTW motif tRNA-uridine aminocarboxypropyltransferase 1) | -0.475 | 2.79 | -0.577 | -0.301 | -0.489 |
| NLRP13 (NLR family pyrin domain containing 13) | -0.325 | 1.86 | -0.24 | -0.272 | -0.632 |
| CAND2 (cullin associated and neddylation dissociated 2 (putative)) | 0.248 | 1.77 | 0.342 | 0.189 | 0.276 |
| CDC42BPA (CDC42 binding protein kinase alpha) | -0.553 | 2.33 | -0.412 | -0.297 | -0.779 |
| HMGN3 (high mobility group nucleosomal binding domain 3) | -0.471 | 1.32 | -0.324 | -0.459 | -0.493 |
| NAA16 (N-alpha-acetyltransferase 16, NatA auxiliary subunit) | -0.0108 | 2.41 | 0.296 | 0.456 | -0.467 |
| CCT4 (chaperonin containing TCP1 subunit 4) | 0.213 | 1.29 | 0.612 | 0.189 | -0.433 |
| UBA2 (ubiquitin like modifier activating enzyme 2) | -0.274 | 2.54 | -0.352 | -0.288 | -0.167 |
| CAP1 (cyclase associated actin cytoskeleton regulatory protein 1) | -0.195 | 2.98 | -0.192 | -0.325 | -0.324 |
| CABS1 (calcium binding protein, spermatid associated 1) | 0.183 | 2.51 | 0.17 | 0.326 | -0.0339 |
| PLGRKT (plasminogen receptor with a C-terminal lysine) | 0.156 | 1.89 | -0.121 | 0.00247 | 0.374 |
| DYNC1LI2 (dynein cytoplasmic 1 light intermediate chain 2) | 0.191 | 3.01 | 0.0187 | 0.127 | 0.304 |
| POP7 (POP7 ribonuclease P/MRP subunit) | -0.0238 | 4.27 | -0.00237 | -0.0346 | -0.0136 |
| SGCA (sarcoglycan alpha) | -0.202 | 2.77 | -0.101 | -0.246 | -0.19 |
| MYO9A (myosin IXA) | -0.342 | 2.22 | -0.0287 | -0.416 | -0.325 |
| SNED1 (sushi, nidogen and EGF like domains 1) | 0.73 | 1.07 | 0.893 | 0.514 | 0.528 |
| POMK (protein O-mannose kinase) | 0.426 | 2.98 | 0.255 | 0.329 | 0.429 |
| ATP6V1C1 (ATPase H+ transporting V1 subunit C1) | 0.0202 | 2.65 | -0.0177 | -0.0755 | -0.0119 |
| NETO2 (neuropilin and tolloid like 2) | 0.607 | 1.18 | 0.394 | 0.502 | 0.697 |
| DAZ2 (deleted in azoospermia 2) | 0.22 | 0.981 | 0.445 | 0.382 | -0.235 |
| C5 (complement C5) | 0.74 | 1.45 | 0.656 | 0.818 | 0.654 |
| TOMM22 (translocase of outer mitochondrial membrane 22) | 0.652 | 1.11 | 0.213 | 0.909 | 0.803 |
| CDH20 (cadherin 20) | 0.186 | 2.33 | 0.177 | 0.168 | 0.404 |
| CTLA4 (cytotoxic T-lymphocyte associated protein 4) | -0.654 | 2.15 | -0.855 | -0.643 | -0.662 |

Reprinted from the entries so far (6 entries):
| gene knocked down | mean correlation with KSR1 profile | mean distance from KSR1 profile | KSR1 correlation, replicate 1 | KSR1 correlation, replicate 2 | KSR1 correlation, replicate 3 |
| --- | --- | --- | --- | --- | --- |
| IFI44L (interferon induced protein 44 like) | -0.481 | 2.82 | -0.619 | -0.447 | -0.285 |
| SNRPD2 (small nuclear ribonucleoprotein D2 polypeptide) | -0.367 | 2.61 | -0.324 | -0.375 | -0.293 |
| GET1 (guided entry of tail-anchored proteins factor 1) | -0.0648 | 2.63 | -0.147 | 0.137 | 0.133 |
| PLEKHF2 (pleckstrin homology and FYVE domain containing 2) | 0.19 | 1.54 | 0.242 | 0.734 | -0.183 |
| KIF18A (kinesin family member 18A) | -0.207 | 1.47 | -0.331 | -0.292 | 0.0452 |
| CTCF (CCCTC-binding factor) | 0.3 | 2.43 | 0.514 | 0.455 | -0.0953 |
